Results reported in US20160208004A1.
No constants are given. Whether binding was seen depends on the method and setting. In cells and extracts the contact can be indirect. Some results given as binding are weak or reduced against the parent protein; the word gives no strength. Where a sequence is shown, tags or fusion partners need not be part of it.

Sequences of proteins named here, by UniProt entry; tags and fusion partners are left off. Residues count along the entry.
UniProt Q96F46, residues 33-320: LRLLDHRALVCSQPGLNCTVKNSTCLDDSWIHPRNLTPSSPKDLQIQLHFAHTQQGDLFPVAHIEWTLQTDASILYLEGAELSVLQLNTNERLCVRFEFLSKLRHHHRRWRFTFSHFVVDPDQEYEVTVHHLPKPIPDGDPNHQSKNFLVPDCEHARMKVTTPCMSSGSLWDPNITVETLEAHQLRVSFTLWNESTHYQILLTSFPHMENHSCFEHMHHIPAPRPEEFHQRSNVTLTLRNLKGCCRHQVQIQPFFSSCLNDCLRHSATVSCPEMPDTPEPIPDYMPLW

Legend:
[1] = target: IL-17RA.HIS (extracellular domain of human IL-17RA fused to a polyhistidine tag) (human) (UniProt Q96F46); experiment: co-immunoprecipitation, Western blot with anti-IL-17RA (FIG. 2)
[2] = target: IL-17RA.HIS (extracellular domain of human IL-17RA fused to a polyhistidine tag) (human) (UniProt Q96F46); experiment: co-immunoprecipitation on Protein G beads, Western blot

binding [1]: binds
binding [2]: binds
B1: IL-17RB.Fc (extracellular domain of human IL-17RB fused to the Fc region of human IgG) (Fc fusion, UniProt Q9NRM6 18-292, looked up, not shown: a dimerising Fc or GST)
chain: REPTVQCGSETGPSPEWMLQHDLIPGDLRDLRVEPVTTSVATGDYSILMNVSWVLRADASIRLLKATKICVTGKSNFQSYSCVRCNYTEAFQTQTRPSGGKWTFSYIGFPVELNTVYFIGAHNIPNANMNEDGPSMSVNFTSPGCLDHIMKYKKKCVKAGSLWDPNITACKKNEETVEVNFTTTPLGNRYMALIQHSTIIGFSQVFEPHQKKQTRASVVIPVTGDSEGATVQLTPYFPTCGSDCIRHKGTVVLCPQTGVPFPLDNNKSKPGGWLP
